Experimental data published in article PMC10250233.
No constants are given. Whether binding was seen depends on the method and setting. Binding seen in cells or lysates may run through a third protein. Some results given as binding are weak or reduced against the parent protein; the word gives no strength.

T1: CTC1 (largest subunit of human CTC1-STN1-TEN1, CST) (human) (UniProt Q2NKJ3)
T1 sequence: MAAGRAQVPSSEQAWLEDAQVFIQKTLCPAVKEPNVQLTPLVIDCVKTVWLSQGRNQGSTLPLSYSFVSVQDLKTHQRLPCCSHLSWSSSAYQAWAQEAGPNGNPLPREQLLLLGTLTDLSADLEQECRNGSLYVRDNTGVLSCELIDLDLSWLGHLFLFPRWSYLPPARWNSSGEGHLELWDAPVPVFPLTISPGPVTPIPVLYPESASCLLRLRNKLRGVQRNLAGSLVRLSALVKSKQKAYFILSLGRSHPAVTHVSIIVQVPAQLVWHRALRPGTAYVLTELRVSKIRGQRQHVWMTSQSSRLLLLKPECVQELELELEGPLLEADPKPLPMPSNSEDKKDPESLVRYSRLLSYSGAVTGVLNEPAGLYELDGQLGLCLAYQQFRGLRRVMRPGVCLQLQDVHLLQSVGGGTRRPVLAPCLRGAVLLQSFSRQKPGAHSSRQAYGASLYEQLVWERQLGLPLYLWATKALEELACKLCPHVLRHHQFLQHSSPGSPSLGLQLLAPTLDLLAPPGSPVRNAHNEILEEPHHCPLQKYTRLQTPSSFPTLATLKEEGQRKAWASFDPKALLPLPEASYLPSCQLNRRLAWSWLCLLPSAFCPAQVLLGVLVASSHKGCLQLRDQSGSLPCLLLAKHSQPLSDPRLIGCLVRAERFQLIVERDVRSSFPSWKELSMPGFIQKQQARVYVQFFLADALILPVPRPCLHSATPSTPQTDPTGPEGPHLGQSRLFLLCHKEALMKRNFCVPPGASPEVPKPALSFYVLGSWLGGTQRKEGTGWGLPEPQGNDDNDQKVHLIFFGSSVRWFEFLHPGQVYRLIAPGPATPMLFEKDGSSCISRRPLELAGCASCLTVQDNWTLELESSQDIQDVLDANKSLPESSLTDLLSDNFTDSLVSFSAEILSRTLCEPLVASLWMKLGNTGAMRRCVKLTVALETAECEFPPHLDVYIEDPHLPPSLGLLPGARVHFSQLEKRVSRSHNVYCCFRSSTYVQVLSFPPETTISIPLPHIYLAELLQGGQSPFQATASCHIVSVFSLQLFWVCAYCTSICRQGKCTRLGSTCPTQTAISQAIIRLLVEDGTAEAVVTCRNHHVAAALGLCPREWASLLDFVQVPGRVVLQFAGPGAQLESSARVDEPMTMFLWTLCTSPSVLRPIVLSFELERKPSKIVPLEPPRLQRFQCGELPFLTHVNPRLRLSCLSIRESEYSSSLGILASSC


Target: T1, CTC1 (largest subunit of human CTC1-STN1-TEN1, CST) (human)
Experiment: pull-down; tandem affinity co-purification from lysate of Tni cells co-expressing the three subunits: Ni-NTA agarose (6xHis on STN1 and TEN1), then anti-FLAG resin (2xFLAG on CTC1), eluted with 3xFLAG peptide; 300 mM NaCl, 15 mM imidazole pH 8.0, 50 mM HEPES pH 7.4, 1 mM DTT, 4°C; checked by SDS-PAGE

binding	Binder
binds	STN1 (medium subunit of human CTC1-STN1-TEN1, CST) (protein, UniProt Q9H668 1-368) MQPGSSRCEEETPSLLWGLDPVFLAFAKLYIRDILDMKESRQVPGVFLYNGHPIKQVDVLGTVIGVRERDAFYSYGVDDSTGVINCICWKKLNTESVSAAPSAARELSLTSQLKKLQETIEQKTKIEIGDTIRVRGSIRTYREEREIHATTYYKVDDPVWNIQIARMLELPTIYRKVYDQPFHSSALEKEEALSNPGALDLPSLTSLLSEKAKEFLMENRVQSFYQQELEMVESLLSLANQPVIHSASSDQVNFKKDTTSKAIHSIFKNAIQLLQEKGLVFQKDDGFDNLYYVTREDKDLHRKIHRIIQQDCQKPNHMEKGCHFLHILACARLSIRPGLSEAVLQQVLELLEDQSDIVSTMEHYYTAF
binds	TEN1 (small subunit of human CTC1-STN1-TEN1, CST) (protein, UniProt Q86WV5 1-123) MMLPKPGTYYLPWEVSAGQVPDGSTLRTFGRLCLYDMIQSRVTLMAQHGSDQHQVLVCTKLVEPFHAQVGSLYIVLGELQHQQDRGSVVKARVLTCVEGMNLPLLEQAIREQRLYKQERGGSQ
